# Primary screen of a compound library

Sequences of proteins named here, by UniProt entry; tags and fusion partners are left off.
UniProt E9BF75, entry or part of it: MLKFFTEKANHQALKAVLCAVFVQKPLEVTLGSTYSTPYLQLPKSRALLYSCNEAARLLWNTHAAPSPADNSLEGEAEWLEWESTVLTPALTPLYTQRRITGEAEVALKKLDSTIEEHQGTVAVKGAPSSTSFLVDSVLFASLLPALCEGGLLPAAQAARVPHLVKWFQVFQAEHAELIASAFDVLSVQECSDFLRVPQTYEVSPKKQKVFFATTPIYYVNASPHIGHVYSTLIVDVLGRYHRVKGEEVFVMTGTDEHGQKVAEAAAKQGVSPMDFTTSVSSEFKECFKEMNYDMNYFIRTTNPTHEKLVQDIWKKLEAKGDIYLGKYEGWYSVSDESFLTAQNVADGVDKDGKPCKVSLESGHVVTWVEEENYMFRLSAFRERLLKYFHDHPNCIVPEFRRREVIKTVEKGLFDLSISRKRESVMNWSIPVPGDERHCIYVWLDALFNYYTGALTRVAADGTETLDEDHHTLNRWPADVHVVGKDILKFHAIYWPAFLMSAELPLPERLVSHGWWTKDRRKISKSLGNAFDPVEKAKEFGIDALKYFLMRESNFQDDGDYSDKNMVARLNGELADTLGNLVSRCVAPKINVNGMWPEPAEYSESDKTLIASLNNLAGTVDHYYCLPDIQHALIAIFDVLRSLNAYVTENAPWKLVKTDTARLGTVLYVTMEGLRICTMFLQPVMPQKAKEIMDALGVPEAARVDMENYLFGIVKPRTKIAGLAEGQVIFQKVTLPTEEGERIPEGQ

Measurements from “University of Dundee, Small-Polar-MMV Screening Library” (2021), ChEMBL document CHEMBL3988442.

All values are in %. How 0% and 100% were set is not recorded. Most values in the screen are low, and negative values occur. The compounds are a random part of those screened. A dash means the value is not listed here; it may have been measured.

A: 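Methionyl-tRNA synthetase (putative), Leishmania donovani (UniProt E9BF75). Primary screen of methionyl-tRNA synthetase; the read-out is not stated. The test concentration is not given. Values are per cent inhibition. Of about 68,000 compounds tested this way, about 24 (0.035%) reached 50% or more in at least one test.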
B: 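Assay on Mycobacterium tuberculosis, filed only as a heat shock assay from Cornell; the read-out is not stated. The concentration is filed as 10 mM, unlikely as a test dose, so the dose is not known. Direction is inferred from retests: higher values go with stronger inhibition. About 69,000 compounds were tested under these conditions; 1.4% (about 930) showed 50% or more at least once.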

| # | structure | A | B |
|---|---|---|---|
| 1 | `CC/C=C(/C)C(=O)NCCc1csc(N2CCCC2)n1` | 18.57 | 1.6 |
| 2 | `Cn1ccnc1CN1CCC2(CC1)COC2` | 10.99 | - |
| 3 | `COCC(=O)Nc1ccc(-c2noc([C@@H]3CCCN3C)n2)cn1` | 8.791 | -4.553 |
| 4 | `CCOCCCNC(=O)c1nn(CC)cc1Br` | -5.276 | -10.85 |
| 5 | `COCCC(=O)N1CCN(CC2CC2)c2nc(C)ccc2C1.O=C(O)C(F)(F)F` | - | -19.4 |
| 6 | `COCCNC(=O)[C@H]1C[C@@H]2CCN(c3ncccn3)C[C@H]2O1` | 17.26 | - |
| 7 | `CC(O)CN(CC(=O)NC(=O)NCC(F)(F)F)c1ccccc1` (stereo not drawn) | 13.89 | 0.03253 |
| 8 | `CCS(=O)(=O)N1CCn2c(COCC3CCOCC3)cnc2C1C` (stereo not drawn) | 15.68 | -4.492 |
| 9 | `Cc1ccc(N2CCN(CC3CC3)C3(CCN(C(C)C)CC3)C2=O)cn1.O=C(O)C(F)(F)F` | - | -21.25 |
| 10 | `O=C(O)C(F)(F)F.c1ncn(Cc2cn3c(n2)CN(CC2CCCCC2)CC3)n1` | - | -17.3 |
| 11 | `C[C@@H]1CN(C2CCOC2)C[C@]12CCN(c1cccnc1)C2=O` (stereo partly drawn) | -10.28 | - |
| 12 | `COC(=O)[C@@H](NC(=O)Nc1ccc(C(C)=O)cc1)C(C)C` | -11.65 | -10.01 |
| 13 | `Cc1cc(C(=O)N(CCN(C)C)Cc2ccc(Cl)cc2)no1` | 10.33 | 4.064 |
| 14 | `[H][C@@]12CN(Cc3ccc(Cl)cc3)C[C@]1([H])OCC(=O)N2CC(N)=O` | - | -16.8 |
| 15 | `COc1ccc2nnc(CCCC(=O)NCc3ccccc3F)n2n1` | 2.326 | 7.407 |
| 16 | `O=C(Nc1cc(CSCCO)ccn1)c1ccc(Cl)o1` | 22.77 | 15.43 |
| 17 | `CN(CCCN1CCCC1)[C@@H]1c2ccccc2C2(CCNCC2)[C@H]1O` | 2.611 | -25.15 |
| 18 | `O=C(O)C(F)(F)F.[H][C@@]12COC[C@H](NS(C)(=O)=O)[C@]1([H])CN(Cc1ccc(C)s1)C2` | - | -17.68 |
| 19 | `Cc1cc2c(cc1C)C(NCc1nnc3n1CCCCC3)CCCO2` (stereo not drawn) | 12.27 | -15.18 |
| 20 | `Cc1nn(C)c(C)c1-c1cc(-c2cc(CC(=O)O)cs2)nc(N)c1C#N` | 18.75 | -11.85 |
| 21 | `Cc1nonc1NC(=O)CCn1cc(Br)ccc1=O` | 9.946 | -22.99 |
| 22 | `Cc1nc(C2CN(C)CCO2)cc(N2CCC(C(N)=O)CC2)n1` (stereo not drawn) | 9.061 | -10.45 |
| 23 | `O=C(NCCOCCO)c1cnc(-c2ccccc2)nc1O` | 14.29 | -4.7 |
| 24 | `Cc1cc(N(C)CCC(O)c2ccccc2)n2nccc2n1` (stereo not drawn) | 9.207 | 35.18 |
| 25 | `CC(Cn1ccnc1)NC(=O)N1CCN(Cc2ccsc2)CC1` (stereo not drawn) | 15.85 | 12.48 |
| 26 | `COc1ccc(-c2ccc(C3CNCCO3)nc2)cc1.Cl` (stereo not drawn) | - | -16.41 |
| 27 | `Cn1cc(CN2C[C@@H]3COC[C@@H](C(=O)N4CCCCO4)[C@@H]3C2)cn1` | 3.833 | - |
| 28 | `Cc1ccc2c(c1)c(CNC(=O)C1CCN(C(=O)C3CC3)CC1)nn2C` | 16.88 | 11.38 |
| 29 | `Cn1ccnc1COc1ccc(COC(=O)C2CCCO2)cc1` (stereo not drawn) | 4.416 | -6.725 |
| 30 | `CCOc1ccccc1CCNC(=O)NCC(O)c1cccs1` (stereo not drawn) | 3.621 | 2.492 |
| 31 | `CCCOc1ccc(C(=O)N[C@@H]2CCNC[C@H]2O)cc1Cl` | -3.655 | -14.38 |
| 32 | `Cc1ccc(F)cc1C(=O)OCC1CCCN1C(N)=O` (stereo not drawn) | 6.983 | -10.46 |
| 33 | `CC1(NC(=O)Cc2csc(C(C)(C)C)n2)CCS(=O)(=O)C1` (stereo not drawn) | 8.374 | -9.713 |
| 34 | `CCCN1CCCn2c(nc(CNC(=O)c3nccn3C)cc2=O)C1.O=C(O)C(F)(F)F` | - | 9.409 |
| 35 | `O=C(N1CCOCC1)N1CC[C@@](O)(c2ccccc2)[C@H]2CCCC[C@@H]21` | 11.29 | - |
| 36 | `CCOCC1CC2(CCN(C(=O)c3ccccc3F)CC2)CO1` (stereo not drawn) | 18.45 | -5.855 |
| 37 | `Cc1cnc(N2CCc3cc(C(=O)O)c(N(C)C)nc3CC2)nc1` | 2.346 | - |
| 38 | `COc1ccc(C)cc1CN(C)CCCNS(C)(=O)=O` | 11.21 | 9.284 |
| 39 | `COCc1nc(CN(CC(N)=O)C(C)C)cs1` | 17.75 | -5.888 |
| 40 | `CC(c1ccncc1)N(C)C(=O)NCCOc1ccc(C#N)cc1` (stereo not drawn) | 7.508 | 10 |
| 41 | `O=C(CC1=CSC2=NCCCN12)N1CCCCC1c1cccc(F)c1` (stereo not drawn) | 0.2398 | -8.408 |
| 42 | `COC(=O)N1CCc2ccccc2C1C(=O)NCC(F)(F)F` (stereo not drawn) | 15.11 | 5.383 |
| 43 | `NC(=O)N1CCc2ncc(CNC(=O)CC3CC3)n2CC1` | -8.831 | 34.87 |
| 44 | `c1cc(CCN2CCC(c3n[nH]c(C4CC4)n3)CC2)ccn1` | -1.955 | -17.81 |
| 45 | `COC(=O)[C@H](CCSC)NC(=O)Cc1c(C)nn(-c2ccccc2)c1C` | 9.632 | 11.19 |
| 46 | `CCc1ccccc1OC1CN(C(=O)CN(C)Cc2ccncc2)C1` | 11.29 | -16.42 |
| 47 | `CCn1cncc1Cn1ncc2ccccc2c1=O` | 9.138 | -7.114 |
| 48 | `CCN1CCCC(C)(C(=O)NCCc2nnc(C)[nH]2)C1` (stereo not drawn) | 15.08 | -12.04 |
| 49 | `Cc1cc(NC(=O)c2ccc(CN3CC[C@H](O)C3)cc2)ccc1F` | 13.2 | -10.73 |
| 50 | `COCc1cc(C[C@@H]2CC[C@H](O)[C@@H](CN(CC(C)C)CC(C)C)O2)no1` | 8.271 | 2.204 |
| 51 | `Cc1ccc(N2CCc3c(CN(C)Cc4ccco4)cncc3C2)nn1.Cl.Cl` | - | -8.083 |
| 52 | `COc1ccc(C2SC(C)=Nc3c2c(=O)[nH]n3C2CCCC2)cc1O` (stereo not drawn) | 18.86 | 21.18 |
| 53 | `O=S(=O)(C1CC1)N1CCc2ncnc(-c3ccsc3)c2CC1` | 12.89 | -2.171 |
| 54 | `O=C1NCCN1C1CCN(c2ccnc(-c3ccccc3)n2)CC1` | 21.27 | 2.75 |
| 55 | `CS(=O)(=O)N1CCC2(CCCN(Cc3ccccn3)C2)CC1` | -1.718 | - |
| 56 | `CCn1ccnc1CN1C[C@@H](NC(=O)C2CC2)[C@H](c2ccc(C)cc2)C1` | 1.042 | 4.249 |
| 57 | `CCc1ncc2c(n1)CN(Cc1cnc(C)cn1)CC2` | 19.16 | -14.35 |
| 58 | `Cc1noc(C(C)N2CCN(CCCN3CCCC3=O)CC2)n1` (stereo not drawn) | 7.843 | 5.382 |
| 59 | `CCc1nnc(Sc2nn3cc(C)nc3s2)n1C` | 14.63 | 16.22 |
| 60 | `Cc1cc(CN2CCC(O)(Cn3ccc4ncccc43)CC2)c(C)s1` | 21.88 | 0.2508 |
| 61 | `Cc1ncnc(N2CCCN(c3nc4ccccc4s3)CC2)c1C` | 18.79 | 10.22 |
| 62 | `O=c1ccn([C@H]2CCN(Cc3ncc[nH]3)CC[C@@H]2O)c(=O)[nH]1` | 15.53 | -2.548 |
| 63 | `O=C(O)C(F)(F)F.O=C(O)C(F)(F)F.O=C(O)C(F)(F)F.[H][C@@]12CN(Cc3ccncc3)C[C@]1([H])[C@@H](OC)CCN2C1CCC1` | - | -22.46 |
| 64 | `Cc1cccc(CN2CCC3(CCCN(C(=O)N4CCCC4)C3)C2=O)n1.O=C(O)C(F)(F)F` (stereo not drawn) | - | -8.268 |
| 65 | `CCc1cc(N2CCC(NC(=O)CCC3CCCO3)CC2)ncn1` (stereo not drawn) | 4.124 | -18.51 |
| 66 | `COCC(=O)NCCc1nc(N(C)C)ncc1-c1ccncc1` | 13.08 | 2.245 |
| 67 | `Cc1cccc2[nH]c(C3CCN(C(=O)c4ccc[nH]4)CC3)nc12` | 16.05 | -10.97 |
| 68 | `Cc1ccc(NC(=O)Nc2c[nH]c(=O)[nH]c2=O)c(Cl)c1` | 15.76 | 8.954 |
| 69 | `Cc1cc(C(=O)N2CCc3ncnc(-c4cnn(C)c4)c3CC2)c(C)o1` | 9.645 | -1.49 |

Once more, the final 5:

- CCc1cc(N2CCC(NC(=O)CCC3CCCO3)CC2)ncn1 (stereo not drawn) : A: 4.124%; B: -18.51%
- COCC(=O)NCCc1nc(N(C)C)ncc1-c1ccncc1 : A: 13.08%; B: 2.245%
- Cc1cccc2[nH]c(C3CCN(C(=O)c4ccc[nH]4)CC3)nc12 : A: 16.05%; B: -10.97%
- Cc1ccc(NC(=O)Nc2c[nH]c(=O)[nH]c2=O)c(Cl)c1 : A: 15.76%; B: 8.954%
- Cc1cc(C(=O)N2CCc3ncnc(-c4cnn(C)c4)c3CC2)c(C)o1 : A: 9.645%; B: -1.49%